Results as given in patent US20120198585A1.
These are yes or no findings as the source states them, for the method shown. Some entries that bind do so weakly or less than the wild type.

How the values were obtained:
14λ:YFPc (Arabidopsis) [1] = assay: BiFC in stable transgenic Arabidopsis
14λ:YFPc (Arabidopsis) [2] = assay: BiFC, transient co-expression in N. benthamiana leaves

binding (14λ:YFPc (Arabidopsis) [1]): binds
binding (14λ:YFPc (Arabidopsis) [2]): binds
B1: R18:YFPn (peptide, not shown: large carriers)
chain: PHCVPRDLSWLDLEANMCLP
